Source: the supplement of paper PMC12823440, “Inhibitors supercharge kinase turnover through native proteolytic circuits” (Nature, 2025)
The other results are listed elsewhere or left out. Hit calls seldom repeat between salt and free forms of one compound.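 Kinases were expressed as nanoluciferase fusions in K562 cells and luminescence was read every 4 h between 2 and 18 h as percent of control, DMSO set to 100% and a positive control to 0%. A time point counts as decreased when the signal drops significantly (2 sigma). The hit call is the authors' own, does not follow from the count of time points alone, and its rule is not shown.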

Protein sequences, listed by entry. Tags and fused reporters are not part of them. Lines headed by an entry give the natural chain unless they say otherwise; changes in a name come on top.
UniProt Q9UM73: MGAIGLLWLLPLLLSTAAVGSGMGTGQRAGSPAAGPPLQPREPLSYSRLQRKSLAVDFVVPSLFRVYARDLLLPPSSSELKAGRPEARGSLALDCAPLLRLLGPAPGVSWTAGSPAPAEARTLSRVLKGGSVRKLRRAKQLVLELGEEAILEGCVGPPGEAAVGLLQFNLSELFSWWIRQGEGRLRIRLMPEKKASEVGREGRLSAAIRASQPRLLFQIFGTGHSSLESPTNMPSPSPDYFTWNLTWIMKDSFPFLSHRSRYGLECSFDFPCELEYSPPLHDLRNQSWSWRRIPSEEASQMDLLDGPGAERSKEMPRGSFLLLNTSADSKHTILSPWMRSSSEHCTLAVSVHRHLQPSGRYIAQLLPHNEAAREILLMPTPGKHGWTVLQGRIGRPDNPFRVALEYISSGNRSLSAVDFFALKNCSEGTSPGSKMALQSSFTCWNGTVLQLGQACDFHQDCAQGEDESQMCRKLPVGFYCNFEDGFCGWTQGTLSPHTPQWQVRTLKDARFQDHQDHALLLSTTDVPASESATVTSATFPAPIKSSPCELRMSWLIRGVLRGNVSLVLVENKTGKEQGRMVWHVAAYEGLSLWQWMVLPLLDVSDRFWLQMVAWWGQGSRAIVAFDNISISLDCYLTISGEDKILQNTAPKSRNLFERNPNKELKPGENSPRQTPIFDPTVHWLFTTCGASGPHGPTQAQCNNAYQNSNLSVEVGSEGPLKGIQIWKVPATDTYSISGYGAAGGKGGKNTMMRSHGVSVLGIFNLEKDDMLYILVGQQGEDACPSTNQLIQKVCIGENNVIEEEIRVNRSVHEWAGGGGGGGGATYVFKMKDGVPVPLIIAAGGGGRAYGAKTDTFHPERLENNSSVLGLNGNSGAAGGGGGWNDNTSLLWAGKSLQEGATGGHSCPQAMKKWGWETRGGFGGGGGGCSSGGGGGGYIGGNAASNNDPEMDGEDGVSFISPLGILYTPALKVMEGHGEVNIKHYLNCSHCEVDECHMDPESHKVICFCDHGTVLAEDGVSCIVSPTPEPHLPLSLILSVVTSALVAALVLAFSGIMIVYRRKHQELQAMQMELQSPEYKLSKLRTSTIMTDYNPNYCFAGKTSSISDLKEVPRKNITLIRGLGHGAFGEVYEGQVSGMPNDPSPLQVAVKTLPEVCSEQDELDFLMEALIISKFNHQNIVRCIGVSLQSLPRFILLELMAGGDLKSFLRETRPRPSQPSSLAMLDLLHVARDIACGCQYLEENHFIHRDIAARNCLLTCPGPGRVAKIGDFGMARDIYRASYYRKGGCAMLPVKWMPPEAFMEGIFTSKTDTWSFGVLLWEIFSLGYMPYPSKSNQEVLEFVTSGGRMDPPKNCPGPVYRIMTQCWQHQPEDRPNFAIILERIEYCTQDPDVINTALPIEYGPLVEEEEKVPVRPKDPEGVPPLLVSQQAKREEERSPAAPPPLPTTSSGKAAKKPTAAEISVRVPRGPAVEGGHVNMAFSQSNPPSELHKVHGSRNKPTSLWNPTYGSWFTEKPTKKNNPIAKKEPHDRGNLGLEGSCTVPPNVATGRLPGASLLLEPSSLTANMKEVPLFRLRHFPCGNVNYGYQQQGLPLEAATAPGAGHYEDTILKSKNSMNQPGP
UniProt P10398: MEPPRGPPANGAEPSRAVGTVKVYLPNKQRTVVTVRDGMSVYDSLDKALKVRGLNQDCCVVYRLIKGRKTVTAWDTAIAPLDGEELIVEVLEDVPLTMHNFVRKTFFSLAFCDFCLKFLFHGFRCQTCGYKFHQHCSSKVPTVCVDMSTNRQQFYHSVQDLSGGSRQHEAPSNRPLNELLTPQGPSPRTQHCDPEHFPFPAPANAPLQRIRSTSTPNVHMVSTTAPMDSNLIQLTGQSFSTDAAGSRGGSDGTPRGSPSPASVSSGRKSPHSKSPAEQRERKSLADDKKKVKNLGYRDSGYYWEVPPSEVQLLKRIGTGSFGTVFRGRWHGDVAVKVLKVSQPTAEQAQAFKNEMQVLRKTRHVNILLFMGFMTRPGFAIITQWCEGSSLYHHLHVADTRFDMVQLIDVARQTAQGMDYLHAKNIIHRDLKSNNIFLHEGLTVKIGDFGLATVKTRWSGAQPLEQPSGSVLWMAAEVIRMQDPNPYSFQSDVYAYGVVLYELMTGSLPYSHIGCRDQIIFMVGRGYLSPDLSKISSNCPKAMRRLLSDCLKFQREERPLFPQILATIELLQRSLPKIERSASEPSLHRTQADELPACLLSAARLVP
UniProt Q96GD4, whole entry: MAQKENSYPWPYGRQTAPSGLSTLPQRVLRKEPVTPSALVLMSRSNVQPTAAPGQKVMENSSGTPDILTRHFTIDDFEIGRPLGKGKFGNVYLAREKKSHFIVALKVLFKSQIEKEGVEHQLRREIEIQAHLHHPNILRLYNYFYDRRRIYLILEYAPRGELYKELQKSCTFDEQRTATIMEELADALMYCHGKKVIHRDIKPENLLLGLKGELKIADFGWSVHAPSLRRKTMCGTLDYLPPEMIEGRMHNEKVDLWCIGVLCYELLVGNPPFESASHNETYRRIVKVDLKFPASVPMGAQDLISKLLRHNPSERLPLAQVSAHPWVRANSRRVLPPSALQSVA
UniProt Q9UQB9: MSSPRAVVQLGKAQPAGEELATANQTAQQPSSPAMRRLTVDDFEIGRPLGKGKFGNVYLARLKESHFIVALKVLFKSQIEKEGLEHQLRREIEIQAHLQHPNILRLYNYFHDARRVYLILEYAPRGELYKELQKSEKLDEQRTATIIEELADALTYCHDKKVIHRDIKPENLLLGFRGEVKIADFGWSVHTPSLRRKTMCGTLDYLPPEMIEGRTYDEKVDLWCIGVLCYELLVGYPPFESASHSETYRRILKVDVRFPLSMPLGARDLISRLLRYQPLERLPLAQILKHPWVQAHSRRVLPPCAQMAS
UniProt P51813: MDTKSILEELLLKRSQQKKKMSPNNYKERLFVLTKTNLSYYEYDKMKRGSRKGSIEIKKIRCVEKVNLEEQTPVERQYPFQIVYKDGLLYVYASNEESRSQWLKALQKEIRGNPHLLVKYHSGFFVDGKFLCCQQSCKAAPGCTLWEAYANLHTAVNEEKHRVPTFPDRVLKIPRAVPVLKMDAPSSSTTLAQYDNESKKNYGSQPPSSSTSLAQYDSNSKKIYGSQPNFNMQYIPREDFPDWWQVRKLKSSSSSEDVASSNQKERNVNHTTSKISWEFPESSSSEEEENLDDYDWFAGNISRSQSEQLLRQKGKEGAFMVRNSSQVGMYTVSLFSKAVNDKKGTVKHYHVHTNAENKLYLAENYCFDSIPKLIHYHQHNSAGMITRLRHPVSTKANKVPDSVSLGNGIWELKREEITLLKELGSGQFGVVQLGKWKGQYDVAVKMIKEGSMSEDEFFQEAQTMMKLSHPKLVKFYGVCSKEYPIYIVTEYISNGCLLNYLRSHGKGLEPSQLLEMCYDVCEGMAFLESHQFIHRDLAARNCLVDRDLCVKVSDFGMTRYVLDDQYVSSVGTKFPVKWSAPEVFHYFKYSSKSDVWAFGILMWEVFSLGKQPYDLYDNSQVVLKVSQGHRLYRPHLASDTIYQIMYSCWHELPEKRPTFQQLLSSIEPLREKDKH
UniProt P15056, whole entry, looked up: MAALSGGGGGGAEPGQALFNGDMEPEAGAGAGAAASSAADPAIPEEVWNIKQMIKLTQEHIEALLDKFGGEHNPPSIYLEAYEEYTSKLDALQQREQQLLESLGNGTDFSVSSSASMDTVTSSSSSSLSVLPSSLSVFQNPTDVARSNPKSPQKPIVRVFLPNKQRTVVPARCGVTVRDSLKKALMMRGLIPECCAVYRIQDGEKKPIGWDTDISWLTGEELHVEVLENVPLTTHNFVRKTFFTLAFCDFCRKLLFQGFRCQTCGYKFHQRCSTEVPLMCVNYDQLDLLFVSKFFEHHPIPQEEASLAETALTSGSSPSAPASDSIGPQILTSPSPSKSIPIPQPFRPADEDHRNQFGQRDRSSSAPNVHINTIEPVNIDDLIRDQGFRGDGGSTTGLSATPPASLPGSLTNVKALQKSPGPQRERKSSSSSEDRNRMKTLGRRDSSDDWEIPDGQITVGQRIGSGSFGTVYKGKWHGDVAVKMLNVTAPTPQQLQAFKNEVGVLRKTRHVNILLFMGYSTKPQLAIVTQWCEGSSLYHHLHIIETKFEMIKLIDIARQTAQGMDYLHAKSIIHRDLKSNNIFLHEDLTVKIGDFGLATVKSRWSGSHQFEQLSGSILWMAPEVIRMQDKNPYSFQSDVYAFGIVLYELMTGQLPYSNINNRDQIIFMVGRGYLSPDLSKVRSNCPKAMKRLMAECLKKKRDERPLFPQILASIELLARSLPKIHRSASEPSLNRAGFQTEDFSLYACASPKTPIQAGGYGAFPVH
UniProt Q06187: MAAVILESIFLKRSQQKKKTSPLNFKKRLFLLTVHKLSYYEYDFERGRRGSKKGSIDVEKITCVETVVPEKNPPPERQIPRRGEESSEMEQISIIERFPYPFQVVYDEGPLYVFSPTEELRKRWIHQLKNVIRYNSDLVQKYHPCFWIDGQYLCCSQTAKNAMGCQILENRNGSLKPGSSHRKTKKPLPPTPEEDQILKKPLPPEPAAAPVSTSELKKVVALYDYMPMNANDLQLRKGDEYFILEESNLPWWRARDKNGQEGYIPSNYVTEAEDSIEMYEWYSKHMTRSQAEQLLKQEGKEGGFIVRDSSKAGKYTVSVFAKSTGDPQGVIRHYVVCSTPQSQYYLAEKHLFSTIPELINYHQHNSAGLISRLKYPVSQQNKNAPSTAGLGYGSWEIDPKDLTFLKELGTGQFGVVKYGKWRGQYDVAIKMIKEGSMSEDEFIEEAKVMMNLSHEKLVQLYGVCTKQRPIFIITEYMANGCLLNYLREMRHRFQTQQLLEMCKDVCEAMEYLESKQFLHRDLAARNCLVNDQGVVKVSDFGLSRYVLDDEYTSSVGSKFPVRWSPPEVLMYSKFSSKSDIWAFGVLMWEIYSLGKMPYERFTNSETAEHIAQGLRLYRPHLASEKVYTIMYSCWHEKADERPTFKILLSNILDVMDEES
UniProt Q9UQM7, whole entry: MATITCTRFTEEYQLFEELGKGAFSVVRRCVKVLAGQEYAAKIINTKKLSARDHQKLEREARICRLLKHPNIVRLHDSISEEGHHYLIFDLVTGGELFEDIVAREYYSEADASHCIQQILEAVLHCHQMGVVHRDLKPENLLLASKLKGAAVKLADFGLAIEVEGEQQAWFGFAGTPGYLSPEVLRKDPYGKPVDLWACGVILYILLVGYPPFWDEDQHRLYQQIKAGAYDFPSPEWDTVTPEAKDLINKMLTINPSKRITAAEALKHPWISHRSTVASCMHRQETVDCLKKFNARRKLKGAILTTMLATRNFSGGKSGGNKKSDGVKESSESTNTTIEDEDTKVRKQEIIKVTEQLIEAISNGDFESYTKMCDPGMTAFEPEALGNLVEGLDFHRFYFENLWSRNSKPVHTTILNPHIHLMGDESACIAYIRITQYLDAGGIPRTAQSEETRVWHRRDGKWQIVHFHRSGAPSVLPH
UniProt Q15131: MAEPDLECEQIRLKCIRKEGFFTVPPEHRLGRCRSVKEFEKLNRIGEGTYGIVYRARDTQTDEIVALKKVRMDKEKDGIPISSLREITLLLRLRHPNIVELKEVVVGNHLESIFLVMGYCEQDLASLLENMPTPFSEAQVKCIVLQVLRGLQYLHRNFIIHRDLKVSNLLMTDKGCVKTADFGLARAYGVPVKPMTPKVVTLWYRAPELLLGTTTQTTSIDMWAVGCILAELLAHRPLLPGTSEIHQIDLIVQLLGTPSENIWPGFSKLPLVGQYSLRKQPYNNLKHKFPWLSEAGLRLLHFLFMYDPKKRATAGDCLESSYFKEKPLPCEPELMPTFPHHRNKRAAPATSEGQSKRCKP
UniProt Q00534, whole entry: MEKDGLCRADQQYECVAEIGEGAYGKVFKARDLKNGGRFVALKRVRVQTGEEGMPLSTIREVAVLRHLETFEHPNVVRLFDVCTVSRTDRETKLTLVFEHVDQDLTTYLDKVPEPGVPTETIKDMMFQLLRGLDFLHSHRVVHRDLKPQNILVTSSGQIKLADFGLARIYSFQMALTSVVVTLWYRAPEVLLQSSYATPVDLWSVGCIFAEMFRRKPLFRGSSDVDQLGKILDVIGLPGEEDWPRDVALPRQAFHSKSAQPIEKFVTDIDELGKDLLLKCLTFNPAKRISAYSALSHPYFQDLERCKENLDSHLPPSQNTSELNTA
UniProt P41240: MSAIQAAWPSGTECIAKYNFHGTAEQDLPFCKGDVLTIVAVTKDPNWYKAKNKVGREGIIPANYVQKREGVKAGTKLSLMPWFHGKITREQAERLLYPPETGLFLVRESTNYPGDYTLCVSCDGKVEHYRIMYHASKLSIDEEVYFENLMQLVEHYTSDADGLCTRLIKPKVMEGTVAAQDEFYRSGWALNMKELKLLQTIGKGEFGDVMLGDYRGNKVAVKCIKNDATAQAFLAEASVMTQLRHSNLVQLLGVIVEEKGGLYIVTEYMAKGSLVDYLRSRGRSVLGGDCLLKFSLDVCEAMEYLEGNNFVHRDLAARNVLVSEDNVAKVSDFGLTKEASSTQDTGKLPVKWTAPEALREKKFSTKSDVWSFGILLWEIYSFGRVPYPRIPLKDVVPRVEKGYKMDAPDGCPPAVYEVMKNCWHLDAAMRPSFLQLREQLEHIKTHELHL

How the values were obtained:
Test in all cases: number of time points (of 5) at which kinase-Nluc abundance scored as decreased, DMSO-normalised (count); higher = more persistent destabilization
Conditions in all cases: K562; 2-18 h
[1] = target: ALK (UniProt Q9UM73)
[2] = target: ARAF (UniProt P10398)
[3] = target: AURKA (UniProt O14965)
[4] = target: AURKB (UniProt Q96GD4)
[5] = target: AURKC (UniProt Q9UQB9)
[6] = target: BLK (UniProt P51451)
[7] = target: BMX (UniProt P51813)
[8] = target: BRAF (UniProt P15056)
[9] = tested on: BRAF_V600E
[10] = target: BTK (UniProt Q06187)
[11] = target: CAMK2A (UniProt Q9UQM7)
[12] = target: CAMK2G (UniProt Q13555)
[13] = target: CDK10 (UniProt Q15131)
[14] = target: CDK2 (UniProt P24941)
[15] = target: CDK3 (UniProt Q00526)
[16] = target: CDK5 (UniProt Q00535)
[17] = target: CDK6 (UniProt Q00534)
[18] = target: CHEK2 (UniProt O96017)
[19] = target: CSF1R (UniProt P07333)
[20] = target: CSK (UniProt P41240)

Row | SMILES | number of time points [1] | number of time points [2] | number of time points [3] | number of time points [4] | number of time points [5] | number of time points [6] | number of time points [7] | number of time points [8] | number of time points [9] | number of time points [10] | number of time points [11] | number of time points [12] | number of time points [13] | number of time points [14] | number of time points [15] | number of time points [16] | number of time points [17] | number of time points [18] | number of time points [19] | number of time points [20]
1 | O=C1NC(=O)/C(=C/c2ccc3c(c2)OC(F)(F)O3)S1 (10 µM) | 0 | 0 | 0 | 0 | 0 | 0 | 0 | 0 | 0 | 0 | 0 | 0 | 0 | 0 | 0 | 0 | 0 | 0 | 0 | 0
2 | N#CC(c1ccnc(NCCc2cccnc2)n1)c1nc2ccccc2s1 (stereo not given) (10 µM) | 0 | 0 | 0 | 0 | 0 | 0 | 0 | 5 | 0 | 0 | 1 | 0 | 0 | 0 | 0 | 0 | 0 | 0 | 0 | 0
3 | COc1ccc(CC(=O)Nc2nc3c(s2)CCc2ccccc2-3)cc1OC (10 µM) | 0 | 0 | 0 | 0 | 0 | 0 | 0 | 0 | 0 | 0 | 0 | 0 | 0 | 0 | 0 | 0 | 0 | 0 | 0 | 0
4 | COc1ccc(Cn2cc(C(=O)N=Nc3c(O)[nH]c4c(C)cccc34)nn2)cc1 [MARK4 inhibitor 1] (10 µM) | 0 | 0 | 0 | 0 | 0 | 0 | 0 | 0 | 0 | 0 | 0 | 0 | 0 | 0 | 0 | 0 | 0 | 0 | 0 | 0
5 | COc1cc2c[n+](C)c3c4cc5c(cc4ccc3c2cc1OC)OCO5 [Nitidine (chloride)] (2 µM) | 0 | 0 | 0 | 0 | 0 | 0 | 0 | 0 | 0 | 0 | 0 | 0 | 0 | 0 | 0 | 0 | 0 | 0 | 0 | 0
6 | CN(CC(=O)N(Cc1ccc(C2CCCCC2)cc1)c1ccc(C(=O)O)cc1)S(=O)(=O)c1c(F)c(F)c(F)c(F)c1F (2.5 µM) | 0 | 0 | 0 | 0 | 0 | 0 | 0 | 0 | 0 | 0 | 0 | 0 | 0 | 0 | 0 | 0 | 0 | 0 | 0 | 0
7 | CC(C)c1cnc(-c2cc(Cl)ccc2F)cc1Nc1ccncc1C(=O)NC(CO)CO (2.5 µM) | 0 | 0 | 0 | 0 | 0 | 0 | 0 | 0 | 0 | 0 | 0 | 0 | 0 | 0 | 0 | 0 | 0 | 0 | 0 | 0
8 | CC1CN(C(=O)Nc2ccc(Cl)c(Cl)c2)C(=Nc2ccc(F)cc2)S1 (stereo not given) (10 µM) | 0 | 0 | 0 | 0 | 0 | 0 | 0 | 0 | 0 | 0 | 0 | 0 | 0 | 0 | 0 | 0 | 0 | 0 | 0 | 0
9 | c1cn2cc(-c3ccc4cn[nH]c4c3)nc(Nc3ccc(N4CCOCC4)cc3)c2n1 [Entospletinib] (10 µM) | 0 | 0 | 0 | 0 | 0 | 0 | 0 | 0 | 0 | 0 | 0 | 0 | 0 | 0 | 0 | 0 | 0 | 0 | 0 | 0
10 | C/C(=C1/C(=O)Nc2ccc(NC(N)=O)cc21)c1ccc[nH]1 (10 µM) | 0 | 0 | 0 | 0 | 0 | 0 | 0 | 0 | 0 | 0 | 0 | 0 | 0 | 0 | 0 | 0 | 0 | 0 | 0 | 0
11 | CC(C)CC1(O)CCN(C(=O)c2ccc(NS(=O)(=O)c3cccc4nccnc34)cc2)CC1 (10 µM) | 0 | 0 | 0 | 0 | 0 | 0 | 0 | 0 | 0 | 0 | 0 | 0 | 0 | 0 | 0 | 0 | 0 | 0 | 0 | 0
12 | C=C1C(=O)O[C@@H]2C[C@@]3(C)CCC[C@H](C)C3=C[C@H]12 [Alantolactone] (10 µM) | 0 | 0 | 0 | 0 | 0 | 0 | 0 | 0 | 0 | 0 | 0 | 0 | 0 | 0 | 0 | 0 | 0 | 0 | 0 | 0
13 | Fc1ccc(-c2nc(-c3ccccc3F)[nH]c2-c2ccncc2)cc1 (2.5 µM) | 0 | 0 | 0 | 0 | 0 | 0 | 0 | 0 | 0 | 0 | 0 | 0 | 0 | 0 | 0 | 0 | 0 | 0 | 0 | 0
14 | O=[N+]([O-])c1cc(C(F)(F)F)cc([N+](=O)[O-])c1NNC(=S)Nc1ccc(F)cc1 (10 µM) | 0 | 0 | 0 | 0 | 0 | 0 | 0 | 0 | 0 | 0 | 0 | 0 | 0 | 0 | 0 | 0 | 0 | 0 | 0 | 0
15 | COc1ccc2c(c1O)OC(C)(C)c1c-2ccc2c1C(=O)N(c1ccc(C(=O)c3ccccc3)cc1)C2=O [Ampkinone] (10 µM) | 0 | 0 | 0 | 0 | 0 | 3 | 0 | 0 | 0 | 0 | 0 | 0 | 0 | 0 | 0 | 0 | 0 | 0 | 0 | 0
16 | O=c1oc2cc(O)ccc2c2ccccc12 [Urolithin B] (10 µM) | 0 | 0 | 0 | 0 | 0 | 0 | 0 | 0 | 0 | 0 | 0 | 0 | 0 | 0 | 0 | 0 | 0 | 0 | 0 | 0
17 | CCN(CC)S(=O)(=O)c1ccc(OC)c(N2CCN(C(=O)c3ccc(F)cc3C(F)(F)F)CC2)c1 (10 µM) | 0 | 0 | 0 | 0 | 0 | 0 | 0 | 0 | 0 | 0 | 0 | 0 | 0 | 0 | 0 | 0 | 0 | 0 | 0 | 0
18 | Cn1cc(Nc2nccc(N3C[C@H]4CC[C@@H](C3)N4C(=O)[C@@H]3CC3(F)F)n2)cn1 (10 µM) | 0 | 0 | 0 | 0 | 0 | 0 | 0 | 0 | 0 | 0 | 0 | 0 | 0 | 0 | 0 | 0 | 0 | 0 | 0 | 0
19 | Cc1noc(C)c1-c1ccc(-c2cc(C(N)=O)c(NC(N)=O)s2)c(O[C@H]2CCNC2)c1 (10 µM) | 0 | 0 | 0 | 0 | 0 | 0 | 0 | 0 | 0 | 0 | 0 | 0 | 0 | 0 | 0 | 0 | 0 | 0 | 0 | 0
20 | Cc1ccc2nc(NC(=O)CSc3nc4c(c(=O)n3-c3ccccc3)SCC4)sc2c1 (2 µM) | 0 | 0 | 0 | 0 | 0 | 0 | 0 | 0 | 0 | 0 | 0 | 0 | 0 | 0 | 0 | 0 | 0 | 0 | 0 | 0
21 | O=C(/C=C/c1ccc(O)c(O)c1)c1ccc(O[C@@H]2O[C@H](CO)[C@@H](O)[C@H](O)[C@H]2O)c(O)c1O [Marein] (10 µM) | 0 | 0 | 0 | 0 | 0 | 0 | 0 | 0 | 0 | 0 | 0 | 0 | 0 | 0 | 0 | 0 | 0 | 0 | 0 | 0
22 | C=CC(=O)Nc1cc2c(Nc3ccc(OCc4ccccn4)c(Cl)c3)ncnc2cc1OCCN1CCOCC1 (10 µM) | 0 | 0 | 0 | 0 | 0 | 0 | 2 | 0 | 0 | 0 | 0 | 0 | 0 | 0 | 0 | 0 | 0 | 0 | 0 | 0
23 | Cn1cnc(-c2cc3nccc(Oc4ccc(NC(=S)NC(=O)Cc5ccccc5)cc4F)c3s2)c1 [MGCD-265 analog] (10 µM) | 3 | 1 | 0 | 0 | 3 | 0 | 3 | 3 | 1 | 0 | 0 | 0 | 3 | 0 | 0 | 0 | 2 | 0 | 1 | 0
24 | CO[C@H]1C[C@@H]2CC[C@@H](C)[C@@](O)(O2)C(=O)C(=O)N2CCCC[C@H]2C(=O)O[C@H]([C@H](C)C[C@@H]2CC[C@@H](O)[C@H](OC)C2)CC(=O)[C@H](C)/C=C(\C)[C@@H](O)[C@@H](OC)C(=O)[C@H](C)C[C@H](C)/C=C/C=C/C=C/1C [Rapamycin] (10 µM) | 0 | 0 | 0 | 0 | 0 | 0 | 0 | 0 | 0 | 0 | 0 | 0 | 0 | 0 | 0 | 0 | 0 | 0 | 0 | 0

An excerpt of these results, with tabs:
Row	SMILES	number of time points [1]	number of time points [2]	number of time points [3]	number of time points [4]	number of time points [5]	number of time points [6]	number of time points [7]	number of time points [8]	number of time points [9]	number of time points [10]	number of time points [11]	number of time points [12]	number of time points [13]	number of time points [14]	number of time points [15]	number of time points [16]	number of time points [17]	number of time points [18]	number of time points [19]	number of time points [20]
22	C=CC(=O)Nc1cc2c(Nc3ccc(OCc4ccccn4)c(Cl)c3)ncnc2cc1OCCN1CCOCC1 (10 µM)	0	0	0	0	0	0	2	0	0	0	0	0	0	0	0	0	0	0	0	0
23	Cn1cnc(-c2cc3nccc(Oc4ccc(NC(=S)NC(=O)Cc5ccccc5)cc4F)c3s2)c1 [MGCD-265 analog] (10 µM)	3	1	0	0	3	0	3	3	1	0	0	0	3	0	0	0	2	0	1	0
